Assay results published in PMC7481404.
These are yes or no findings as the source states them, for the method shown. In cells and extracts the contact can be indirect. Some results given as binding are weak or reduced against the parent protein; the word gives no strength.

Chains of the proteins cited; added tags and fusions are not shown.
UniProt O60260: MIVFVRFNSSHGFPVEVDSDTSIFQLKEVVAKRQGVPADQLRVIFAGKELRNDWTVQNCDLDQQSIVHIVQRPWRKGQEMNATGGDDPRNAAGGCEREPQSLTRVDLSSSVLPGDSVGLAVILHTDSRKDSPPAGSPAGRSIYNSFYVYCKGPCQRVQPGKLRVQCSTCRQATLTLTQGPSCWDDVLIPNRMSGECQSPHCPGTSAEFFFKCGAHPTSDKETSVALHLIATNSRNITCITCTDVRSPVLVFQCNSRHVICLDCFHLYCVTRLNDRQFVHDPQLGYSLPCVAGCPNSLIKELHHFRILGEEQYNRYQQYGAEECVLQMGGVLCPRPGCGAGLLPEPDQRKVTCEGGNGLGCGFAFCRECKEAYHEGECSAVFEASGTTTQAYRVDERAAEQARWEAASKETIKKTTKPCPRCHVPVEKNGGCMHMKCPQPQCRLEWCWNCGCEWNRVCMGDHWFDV
UniProt P10415: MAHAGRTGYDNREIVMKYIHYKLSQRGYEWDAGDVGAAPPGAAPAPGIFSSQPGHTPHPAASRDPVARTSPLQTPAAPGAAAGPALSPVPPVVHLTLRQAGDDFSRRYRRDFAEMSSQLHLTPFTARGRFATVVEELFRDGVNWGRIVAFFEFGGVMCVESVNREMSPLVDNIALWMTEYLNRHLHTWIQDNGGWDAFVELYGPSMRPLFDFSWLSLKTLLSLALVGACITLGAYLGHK

Assays:
[1] = target: FLAG-tagged wild-type PARK2 (human) (UniProt O60260); assay: co-IP; MCF-7 cells stably expressing FLAG-PARK2 or vector, with or without docetaxel (1 nM) 24 h (vinorelbine too); RIPA lysate; anti-FLAG agarose overnight at 4°C; washed three times with NETN buffer; western blot
[2] = target: PARK2 (endogenous, MDA-MB-134-VI) (human (endogenous in MDA-MB-134-VI)) (UniProt O60260); assay: co-IP; endogenous proteins, MDA-MB-134-VI cells treated with docetaxel or vinorelbine for 24 h; lysate with anti-IgG, anti-BCL-2 or anti-PARK2 for 2 h, then protein G agarose overnight; washed three times with NETN buffer

binding [1]	binding [2]	Substance
binds	–	BCL-2 (endogenous, MCF-7) (from UniProt P10415 1-239)
–	binds	BCL-2 (endogenous, MDA-MB-134-VI) (from UniProt P10415 1-239)
–	binds	phospho-BCL-2 (Ser70) (endogenous, MDA-MB-134-VI) (from UniProt P10415 1-239)
